Test results from US20250257148A1 (CROSSLINK THERAPEUTICS, published 2025).
Results are given in words; binding and its absence hold for the method and conditions named. Some binding calls cover weakened binding; strength is not graded here.

Key:
[1] = target: human TAP1 NBD with N676G, S677N, Q680R, E682Q and Q683R substitutions, cysteines replaced by serines, and a C-terminal His tag (construct 24) (human) (UniProt Q03518); assay: mass photometry and DLS; homodimerization in ATP
[2] = target: human TAP1 NBD with N676G, S677N, Q680R, E682Q and Q683R substitutions, cysteines replaced by serines, and a C-terminal His tag (construct 24) (human) (UniProt Q03518); assay: dynamic light scattering, 1 mM ATP against 1 mM ADP; homodimerization
[3] = target: human TAP1 NBD with N676G, S677N, Q680R, E682Q and Q683R substitutions, cysteines replaced by serines, and a C-terminal His tag (construct 24) (human) (UniProt Q03518); assay: size exclusion chromatography (FIG. 9 legend); homodimerization
[4] = target: human TAP1 NBD with N676G, S677N, Q680R, E682Q and Q683R substitutions, cysteines replaced by serines, and a C-terminal His tag (construct 24) (human) (UniProt Q03518); assay: mass photometry (FIG. 10 legend); homodimerization
[5] = target: human TAP1 NBD with N676G, S677N, Q680R, E682Q and Q683R substitutions, cysteines replaced by serines, and a C-terminal His tag (construct 24) (human) (UniProt Q03518); assay: size exclusion chromatography, 1 mM ATP against 1 mM ADP; homodimerization

binding [1]: binds
binding [2]: binds
binding [3]: binds
binding [4]: binds
binding [5]: binds
Substance: human TAP1 NBD with N676G, S677N, Q680R, E682Q and Q683R substitutions, cysteines replaced by serines, and a C-terminal His tag (construct 24) (from UniProt Q03518 492-748)
